The results in this text go back to ChEMBL document CHEMBL1134960, “Benzotrithiole 2-oxide: a new family of thiol-activated DNA-cleaving functionalities” (Bioorg Med Chem Lett, 2002).

One assay concerns PC-3. Briefly: Cytotoxicity against prostate cancer cell lines PC-3 was determined. It counts as functional, cell-based. Conditions: Homo sapiens.
The test system of the next assay is A549. Kind of assay: Cytotoxicity against […] cell lines A549 was determined. The class given is functional, cell-based. Conditions: Homo sapiens.

SMILES strings stand for the structures. pIC50: −log10 of the molar value.

For the compound `COc1cccc2c1C(=O)c1c(O)c3c(c(O)c1C2=O)C[C@@](O)(C(=O)CO)C[C@@H]3O[C@H]1C[C@H](N)[C@H](O)[C@H](C)O1` [DOXORUBICIN], the pIC50 (in general, the negative decadic logarithm of the IC50, by convention in mol/L) in the assay with PC-3 is 7.30; with A549 it was 8.57.
